# Assay results as given in the supplement of paper PMC8104966.
# “And” between values parts separate entries of the source, which are not always exact repeats. Identical values can stand only once. The list shows a part of the results. This data set is noisy: repeats of one test often differ as much as different tests do.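 U2OS cells expressing ACE2 were combined with U2OS cells expressing full-length spike, and imaging quantified fusion as the fraction of nuclei displaying both cell types' fluorescent markers. Non-toxic compounds with a fusion z-score under -3, i.e., over three standard deviations below the plate's DMSO wells, are called inhibitory hits.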
# System: U2OS ACE2 x SARS-CoV-2 spike co-culture
# Assay: cell-cell fusion (fraction fused) z-score vs plate DMSO control; higher = more fusion
# Conditions: 30 µM; 5 h; toxicity class: non-toxic, passed QC
row,SMILES,cell-cell fusion (z-score)
1,CCC(C)[C@H]1O[C@]2(C=C[C@@H]1C)C[C@@H]1C[C@@H](C/C=C(\C)[C@@H](OC3C[C@H](OC)C(O[C@H]4C[C@H](OC)[C@@H](O)[C@H](C)O4)[C@H](C)O3)[C@@H](C)/C=C/C=C3\CO[C@@H]4[C@H](O)C(C)=C[C@@H](C(=O)O1)[C@]34O)O2 (stereo partly specified) [ABAMECTIN (avermectin B1a shown)],inactive: -2.11
2,COc1cc(O)c2c(=O)cc(-c3ccc(O)cc3)oc2c1,inactive: 1.91
3,COc1cccc(OC)c1OCCNCC1COc2ccccc2O1.Cl (stereo unspecified) [WB-4101 hydrochloride],inactive: 0.499
4,CCN(CC)CCCC(C)Nc1ccnc2cc(Cl)ccc12.O=P(O)(O)O.O=P(O)(O)O (stereo unspecified) [Chloroquine diphosphate],inactive: 0.645
5,Clc1ccc(COC(Cn2ccnc2)c2ccc(Cl)cc2Cl)cc1 (stereo unspecified) [Econazole],inactive: 1.78
6,O=C(NC[C@H](O)CO)c1ccncc1Nc1ccc(I)cc1F,inactive: 1.2
7,COc1ccc(-c2cc(=O)c3c(OC)c(OC)c(OC)cc3o2)cc1OC,inactive: 2.11
8,Cc1cc(O)c2c(c1)C(=O)c1cccc(O)c1C2=O,inactive: 1.81
9,O=C(NCc1ccccc1)OCCO,inactive: 1.7
10,C[C@H](Cc1cc2c(c(C(N)=O)c1)N(CCCO)CC2)NCCOc1ccccc1OCC(F)(F)F [Silodosin],inactive: 2.48
11,Cl.N[C@@H]1C[C@H]1c1ccccc1 [Tranylcypromine (2-PCPA) hydrochloride],inactive: 2.06
12,CCCN1CCC[C@@H]2Cc3n[nH]cc3C[C@H]21.Cl [(-)-Quinpirole hydrochloride],inactive: 1.48
13,CC(=O)O[C@H]1Cc2ccccc2N(C(N)=O)c2ccccc21,active: -4.1
14,CC(=O)[C@@]1(O)CC[C@H]2[C@@H]3CCC4=CC(=O)CC[C@]4(C)[C@H]3CC[C@@]21C [Hydroxyprogesterone],inactive: 3.69
15,Cn1cnc2c1c(=O)[nH]c(=O)n2C [Theobromine],inactive: 1.88
16,CC(=O)NC(CS)C(=O)O (stereo unspecified),inactive: -0.0779
17,"Br.NC1CCc2cc(O)c(O)cc2C1 (stereo unspecified) [6,7-ADTN hydrobromide]",active: -3.54
18,COc1ccc2c(c1)OC[C@@H](Cc1ccc(OC)c(OC)c1)[C@@H]2O,inactive: 2.34
19,COc1cc2ncnc(Nc3ccc(F)c(Cl)c3)c2cc1NC(=O)/C=C/CN1CCCCC1 [Dacomitinib],inactive: -1.21
20,CCN(CC)CCNC(=O)c1cc(Br)c(N)cc1OC,inactive: 3.12
21,COc1ccc(C(=O)N2CCCC2=O)cc1 [Aniracetam],inactive: 3.22
22,Cc1cc2c(C(C)C)c(O)c(O)c(C=O)c2c(O)c1-c1c(C)cc2c(C(C)C)c(O)c(O)c(C=O)c2c1O,active: -3.86
23,COC(=O)c1c(OC)cc2c(c1C)Oc1c(Cl)c(O)c(Cl)c(C)c1C(=O)O2,inactive: 2.01
24,C#Cc1cccc(Nc2ncnc3cc(OCCOC)c(OCCOC)cc23)c1 [Erlotinib],inactive: 0.969

row,SMILES,cell-cell fusion (z-score)
1,O=c1c(-c2ccc(O)cc2)coc2cc(O)cc(O)c12,inactive: 2.2
2,O=c1c(-c2ccc(O)cc2)coc2cc(O)cc(O)c12 [Genistein],inactive: 0.843
3,COc1cc2nccc(Oc3ccc(NC(=O)NC4CC4)c(Cl)c3)c2cc1C(N)=O [Lenvatinib],inactive: -0.711
4,CC(C)CCCC(C)C1CCC2C3CC[C@H]4CCCC[C@]4(C)C3CC[C@]12C (stereo partly specified),inactive: 3.04
5,Cn1ccnc1 [1-Methylimidazole],inactive: 2.13
6,"CC(=O)[C@H]1CC[C@H]2[C@@H]3CC[C@H]4C[C@H](O)CC[C@]4(C)[C@H]3C(=O)C[C@]12C [5alpha-Pregnan-3alpha-ol-11,20-dione]",inactive: 3.09
7,Br.CCCN(CCC)[C@@H]1CCc2cccc(O)c2C1 [R-(+)-8-Hydroxy-DPAT hydrobromide],inactive: 1.76
8,Cc1c[nH]c2ccccc12,inactive: 1.93
9,O=c1[nH]c(=O)n(C2C[C@@H](O)[C@@H](CO)O2)cc1F (stereo partly specified),inactive: 1.24
10,CC[C@H](CCC(C)[C@H]1CCC2C3CCC4C[C@@H](O)CC[C@]4(C)C3CC[C@@]21C)C(C)C (stereo partly specified),inactive: 1.28
11,CC(N)Cc1c[nH]c2ccc(OCc3cccs3)cc12.Cl (stereo unspecified),inactive: 2.9
12,Cc1ccccc1-c1cc(N2CCN(C)CC2)ncc1N(C)C(=O)C(C)(C)c1cc(C(F)(F)F)cc(C(F)(F)F)c1 [Netupitant],inactive: 1.59
13,CC[N+](CC)(CC)CCOc1cccc(OCC[N+](CC)(CC)CC)c1OCC[N+](CC)(CC)CC.[I-].[I-].[I-] [Gallamine triethiodide],inactive: 1.48
14,CS(=O)(=O)[O-].C[n+]1ccccc1/C=N/O,inactive: 1.75
15,Cl.Cl.O=C(O)COCCN1CCN(C(c2ccccc2)c2ccc(Cl)cc2)CC1 (stereo unspecified) [Cetirizine dihydrochloride],inactive: 1.39
16,Cl.Cl.O=C(O)COCCN1CCN(C(c2ccccc2)c2ccc(Cl)cc2)CC1 (stereo unspecified),inactive: 1.12
17,Cl.O=C(Nc1ccccc1)OCC(CN1CCCCC1)OC(=O)Nc1ccccc1 (stereo unspecified),active: -3.79
18,NC(=O)c1cnccn1,inactive: 1.55
19,CCCCNC(=O)NS(=O)(=O)c1ccc(C)cc1 [Tolbutamide],inactive: 3.17
20,O=C(NOCC1CC1)c1ccc(F)c(F)c1Nc1ccc(I)cc1Cl,inactive: 2.45
21,CC(c1cc2ccccc2s1)N(O)C(N)=O (stereo unspecified) [Zileuton],inactive: 2.96
22,O=C(O)[C@H](O)[C@@H](O)C(=O)O.O=C(c1ccc(F)cc1)C1CCN(CCn2c(=O)[nH]c3ccccc3c2=O)CC1,inactive: 2.16
23,Cc1nn(-c2ccccc2)c(C)c1/C=N/N1CCN(Cc2ccccc2)CC1,inactive: 2.17
24,C[C@]12C=CC(=O)C=C1CC[C@@H]1[C@@H]2[C@@H](O)C[C@@]2(C)[C@H]1CC[C@]2(O)C(=O)CO [Prednisolone],inactive: 2.48

row,SMILES,cell-cell fusion (z-score)
1,CC(=O)CC(c1ccc([N+](=O)[O-])cc1)c1c(O)c2ccccc2oc1=O (stereo unspecified),inactive: 0.818
2,CC(C(=O)[O-])c1cccc(Oc2ccccc2)c1.CC(C(=O)[O-])c1cccc(Oc2ccccc2)c1.O.O.[Ca+2] (stereo unspecified) [Fenoprofen calcium dihydrate],inactive: 1.96
3,CC(C)NCC(O)COc1ccc(CC(N)=O)cc1 (stereo unspecified) [Atenolol],inactive: 2.65
4,CCc1nn(CCCN2CCN(c3cccc(Cl)c3)CC2)c(=O)n1CCOc1ccccc1,inactive: 2.79
5,NCC[C@H](O)C(=O)N[C@@H]1C[C@H](N)[C@@H](O[C@H]2O[C@H](CN)[C@@H](O)[C@H](O)[C@H]2O)[C@H](O)[C@H]1O[C@H]1O[C@H](CO)[C@@H](O)[C@H](N)[C@H]1O.O=S(=O)(O)O.O=S(=O)(O)O [Amikacin Sulfate Salt],inactive: 1.1
6,O=c1ccn([C@@H]2O[C@H](COP(=O)([O-])OP(=O)([O-])OP(=O)([O-])O)[C@@H](O)[C@H]2O)c(=O)[nH]1.[Na+].[Na+].[Na+],inactive: 2.03
7,C=CCc1ccc2c(c1)OCO2,inactive: 1.93
8,NC(N)=O,inactive: 2.15 and inactive: 3.7
9,O=C([O-])CC1CCCc2ccccc2C1O.[Na+] (stereo unspecified),inactive: 3.62
10,COC(=O)C1=C(C)NC(C)=C(C(=O)OCC(C)C)C1c1ccccc1[N+](=O)[O-] (stereo unspecified) [Nisoldipine],inactive: -2.38
11,CC(=O)O[C@H]1C[C@@H](OC(C)=O)C(C)(C)C2C[C@@H](O)[C@]3(C)C(CC[C@@]4(C)[C@H](c5ccoc5)OC(=O)[C@H]5O[C@]543)[C@]21C (stereo partly specified),inactive: 1.27
12,Oc1ccc(-c2nc(-c3ccncc3)c(-c3ccc(F)cc3)[nH]2)cc1,inactive: 0.681
13,O=C(O[C@@H]1Cc2c(O)cc(O)cc2O[C@@H]1c1cc(O)c(O)c(O)c1)c1cc(O)c(O)c(O)c1 [(-)-Epigallocatechin gallate],inactive: 1.51
14,Oc1cc2c(cc1O)CN(C(=S)NCCc1ccc(Cl)cc1)CCC2 [Capsazepine],inactive: -1.41
15,CCCCC[C@H](O)/C=C/[C@H]1[C@H](O)CC(=O)[C@@H]1C/C=C\CCCC(=O)O [Prostaglandin E2 (PGE2)],inactive: 0.197
16,CC(CN(C)C)CN1c2ccccc2Sc2ccccc21.O=C(O)C(O)C(O)C(=O)O (stereo unspecified),inactive: 0.911
17,CC(=O)O.N=C(N)N/N=C/c1c(Cl)cccc1Cl [Guanabenz acetate],inactive: -0.118
18,Nc1ccc(C(=O)[O-])cc1.[K+],inactive: 1.34
19,CC(O)C1=C(C)/C2=C/C3=N/C(=C\C4=C(CCC(O)=O)C(C)=C(N4)/C=C4\N=C(\C=C\1/N\2)C(C)=C4C(C)O)/C(CCC(O)=O)=C3C (stereo unspecified),inactive: 2.18
20,OC[C@H]1O[C@H](OC[C@H]2O[C@@H](O)[C@H](O)[C@@H](O)[C@@H]2O)[C@H](O)[C@@H](O)[C@H]1O,inactive: 1.82
21,O=C1CC(c2ccc(O)cc2)Oc2ccccc21 (stereo unspecified),inactive: 1.58
22,NC1CCCC[C@H]1N.O=C1[O][Pt][O]C1=O (stereo partly specified),inactive: 1.84
23,COc1cc(N)c(Cl)cc1C(=O)NC1CCN(CCCOc2ccc(F)cc2)CC1OC (stereo unspecified),inactive: 2.58
